{
  "source": "PubChem BioAssay AID587",
  "about": "(National Center for Advancing Translational Sciences (NCATS), 2007)",
  "note": "The campaign covered roughly 59,000 compounds. About 35 (0.06%) were called active. This list was built around the results that the source calls inconclusive (neither active nor inactive); the mix of calls is not that of the screen. No stated cut-off is given here; in the data, active means max dye-equivalent concentration above about 10 nM; inconclusive means between about 1.1 nM and that limit; inactive means weaker than that.",
  "data": [
    {"test": "qHTS Assay for Spectroscopic Profiling in Texas Red Spectral Region", "details": "Compound fluorescence, Texas Red channel, 547/618 nm; stronger effect = higher value", "summary_of_the_method": "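Dye-equivalent concentrations come from scaling compound signal (ex 547, em 618 nm) to six Texas Red standard concentrations run on every plate, after 15 min room-temperature incubation in pH 8.0 Tris (100 mM).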", "values": [
      {"smiles": "Cc1cc(=O)oc2cc(OCC(=O)N3CCCC(C)C3)ccc12", "note": "(stereo not drawn)", "max dye-equivalent concentration": "inconclusive: 2 nM"},
      {"smiles": "FC(F)(F)c1ccccc1-c1nc(NCc2cccnc2)c2ccccc2n1", "max dye-equivalent concentration": "inactive"},
      {"smiles": "CN(C)c1ncc2nc(-c3ccc(F)cc3)c(=O)n(C[C@H]3CCCO3)c2n1", "max dye-equivalent concentration": "inactive"},
      {"smiles": "Cc1ccccc1CN1CCN(CC(=O)NCc2ccc3c(c2)OCO3)C1=O", "max dye-equivalent concentration": "inconclusive: 1.5 nM"},
      {"smiles": "CC(=O)Nc1ccc(S(=O)(=O)Nc2cccc(N(C)S(C)(=O)=O)c2)cc1", "max dye-equivalent concentration": "inconclusive: 1.4 nM"},
      {"smiles": "O=C(COc1ccc(F)c(Cl)c1)c1ccc[nH]1", "max dye-equivalent concentration": "inconclusive: 2.2 nM"},
      {"smiles": "O=C(COC(=O)c1ccccn1)NCCCc1ccccc1", "max dye-equivalent concentration": "inconclusive: 2.1 nM"},
      {"smiles": "Cn1ccnc1SCC(=O)Nc1ccc(Oc2ccccc2)cc1", "max dye-equivalent concentration": "inconclusive: 1.5 nM"},
      {"smiles": "Cc1cccc(-c2nnc(SCC#N)n2Cc2ccccc2)c1", "max dye-equivalent concentration": "inconclusive: 1.9 nM"},
      {"smiles": "Cc1cc(C)c(C#N)c(SCC(=O)N(C)C2CCCCC2)n1", "max dye-equivalent concentration": "inconclusive: 2.1 nM"},
      {"smiles": "CCN1CCN(C(=O)CN(C)S(=O)(=O)c2ccc(OC)cc2)CC1", "max dye-equivalent concentration": "inconclusive: 1.3 nM"},
      {"smiles": "O=C(CSc1nc(-c2cccs2)cc(C(F)(F)F)n1)NCc1ccco1", "max dye-equivalent concentration": "inconclusive: 1.2 nM"},
      {"smiles": "C[C@@H]1C[C@H](C)CN(S(=O)(=O)c2cc(Cl)c(Oc3ccc([N+](=O)[O-])cc3Cl)c(Cl)c2)C1", "max dye-equivalent concentration": "inactive"},
      {"smiles": "CC(=O)c1c(C)[nH]c(C(=O)CSc2nc3ccccc3c(=O)n2CCCN2CCOCC2)c1C", "max dye-equivalent concentration": "inconclusive: 1.6 nM"},
      {"smiles": "CCN(CC)CCN(Cc1cc2cc(C)ccc2[nH]c1=O)C(=O)Nc1ccccc1OC", "max dye-equivalent concentration": "inconclusive: 1.6 nM"},
      {"smiles": "Nc1ccccc1S[C@@H](C[N+](=O)[O-])c1ccc2c(c1)OCO2", "max dye-equivalent concentration": "inactive"},
      {"smiles": "CC(=O)C(Sc1nc(NC(C)(C)C)nc(N(C)C)n1)C(C)=O", "max dye-equivalent concentration": "inconclusive: 1.2 nM"},
      {"smiles": "Nn1c(SCC(=O)N2CCOCC2)nnc1-c1ccc(Cl)cc1Cl", "max dye-equivalent concentration": "inconclusive: 1.1 nM"},
      {"smiles": "CC(C)C(NC(=O)c1ccc(S(=O)(=O)N2CCOCC2)cc1)c1nc2ccccc2[nH]1", "note": "(stereo not drawn)", "max dye-equivalent concentration": "inconclusive: 1.3 nM"},
      {"smiles": "CN(CCc1ccccn1)C(=O)Nc1ccc(F)cc1", "max dye-equivalent concentration": "inconclusive: 2.2 nM"},
      {"smiles": "CN1CCc2cccc3c2[C@@H]1Cc1ccc(O)c(O)c1-3", "max dye-equivalent concentration": "inconclusive: 1.2 nM"},
      {"smiles": "O=c1[nH]c(CS(=O)(=O)c2ccccc2)nc2ccccc12", "max dye-equivalent concentration": "inconclusive: 1.3 nM"},
      {"smiles": "C[C@H]1C[C@@H]2[C@@H]([C@@H](O)C[C@@]3(C)[C@H]2CC[C@]3(O)C(=O)CO)[C@@]2(C)C=CC(=O)C=C12", "max dye-equivalent concentration": "inactive"}
    ]}
  ]
}
